Library screening results

The chains behind the UniProt entries cited, without tags or fusion partners.
UniProt E9BF75, entry or part of it: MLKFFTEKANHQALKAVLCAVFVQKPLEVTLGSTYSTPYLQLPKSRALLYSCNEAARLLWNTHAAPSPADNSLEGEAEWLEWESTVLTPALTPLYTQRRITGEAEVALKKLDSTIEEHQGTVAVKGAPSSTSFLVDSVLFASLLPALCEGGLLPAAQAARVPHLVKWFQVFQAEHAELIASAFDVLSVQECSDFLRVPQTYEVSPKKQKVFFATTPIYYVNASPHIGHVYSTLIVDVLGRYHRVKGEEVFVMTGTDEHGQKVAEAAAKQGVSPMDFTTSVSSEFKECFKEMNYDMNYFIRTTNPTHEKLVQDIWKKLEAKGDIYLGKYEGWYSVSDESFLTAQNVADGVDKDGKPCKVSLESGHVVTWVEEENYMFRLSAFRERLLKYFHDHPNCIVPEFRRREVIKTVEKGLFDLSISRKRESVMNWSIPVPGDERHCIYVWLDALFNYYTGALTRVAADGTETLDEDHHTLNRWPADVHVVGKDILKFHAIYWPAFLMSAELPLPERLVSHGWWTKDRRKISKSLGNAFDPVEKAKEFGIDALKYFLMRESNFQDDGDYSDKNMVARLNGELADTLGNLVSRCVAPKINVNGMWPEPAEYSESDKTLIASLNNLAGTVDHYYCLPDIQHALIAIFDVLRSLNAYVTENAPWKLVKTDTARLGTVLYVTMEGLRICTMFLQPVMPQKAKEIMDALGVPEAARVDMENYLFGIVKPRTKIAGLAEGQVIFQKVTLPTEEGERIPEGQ

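Primary screen of methionyl-tRNA synthetase; the read-out is not stated. Target: Methionyl-tRNA synthetase (putative), Leishmania donovani (UniProt E9BF75). The test concentration is not given. The values are filed as inhibition. About 68,000 compounds were tested under these conditions; 0.035% (about 24) showed 50% or more at least once.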

All values are in %. The controls that fix the scale are not given in the record; negative values are as filed. The compounds are a random part of those screened.

Cc1n[nH]c(C2CN(Cc3nnc(C4CC4)n3C)CCO2)n1 (configuration not stated) read 5.155%.
CC1CN(Cc2nnsc2Cl)CCN1c1nccs1 (configuration not stated) read 9.394%.
O=C(Nc1cccc(F)c1)C1CCN(Cc2noc(C3CC3)n2)CC1 read 7.88%.
CCC1CN(CC(=O)N2CCN(C(C)=O)CC2)CCN1CCOC (configuration not stated) read 17.09%.
Cc1ccc(CN2CCN(C)c3ncccc3C2)o1 read 9.333%.
CC(NC(=O)NCCCN(C)S(C)(=O)=O)c1ccc(C#N)cc1 (configuration not stated) read 15.76%.
Cc1ccc(CN2Cc3c(C(=O)N(C)C)nn(C)c3C2)s1 read 19.5%.
CN(C)S(=O)(=O)N1CCCC1C(=O)N1CCSCC1 (configuration not stated) read 5.988%.
CC1=C(C(=O)N2CCOC(Cc3cccc(C(F)(F)F)c3)C2)OCCO1 (configuration not stated) read 10.96%.
COc1ccc(CN2CCOC(CCc3ccnc(N)c3)C2)cc1 (configuration not stated) read 12%.
O=C(O)CN1CCC(c2ccccc2)C1 (configuration not stated) read 19.3%.
CN1CCc2c(C#N)c(NCc3cccnc3)n3cnnc3c2C1 read 12.83%.
Cc1csc2ncc(-c3ccnc(N4CCC[C@@H]4CO)n3)c(=O)n12 read 15.29%.
O=C(CN1CCN(CC(O)C2CC2)CC1)NCc1ccc(F)cc1 (configuration not stated) read 14.71%.
CCN(C(=O)C1CC1)C(c1cccnc1)c1ccc2c(c1)CCO2 (configuration not stated) read 9.22%.
Cn1ccc2cc(C(=O)Nc3nc[nH]n3)ccc21 read 8.163%.
NC(=O)N1CC[C@@H]2O[C@@H](COCC(=O)N3CCCC3)CC[C@@H]21 read 8.75%.
COCCN1C(=O)CCC12CCCN(c1ncc(F)cn1)CC2 (configuration not stated) read 13.48%.
Cc1ccc(N2CCCC3(CCN(C(=O)CC(F)(F)F)C3)C2)nn1 (configuration not stated) read 6.162%.
CCOc1cc(Cl)ccc1CNC(=O)N1CCCC(CO)C1 (configuration not stated) read 7.692%.
COC(=O)CCNC(=O)c1nnn(-c2ccc(C)cc2)c1C1CC1 read 9.777%.
CN(Cc1ccc(F)cc1)Cc1cc2c(cc1Br)OCCO2 read 9.887%.
CC(C)N1[C@H](Cn2cncn2)C[C@@H]2CN(Cc3ccsc3)CC[C@@H]21 read 17.37%.
CCOC(=O)[C@@H]1CN2CCNC[C@@H]2[C@H]1c1ccccc1 read 12.88%.
Cn1nccc1C(=O)N1C[C@@H]2CN(S(C)(=O)=O)CCO[C@@H]2C1 read 18.03%.
COc1cc(NC(=O)N(C)C(C2CC2)C2CC2)ncn1 read -1.882%.
CC(=O)c1ccc(S(=O)(=O)Nc2cnn(C3CCOCC3)c2)cc1 read 7.324%.
Cc1cc(C)cc(C2(C(=O)NC(C)Cn3ccnc3)CC2)c1 (configuration not stated) read 9.859%.
CN(Cc1ccccn1)C1CCC[C@@H]2CN(CC3CC3)C[C@H]12 (some centres not stated) read -10.08%.
COc1ccc(CC(=O)N2CCCC(n3nc(C)cc3C)C2)cc1 (configuration not stated) read 4.789%.
Cc1cccc(CN2CCCCC2c2n[nH]cc2-c2cc(C)no2)c1 (configuration not stated) read 20.63%.

For reference, 4 entries once more:

For COC(=O)CCNC(=O)c1nnn(-c2ccc(C)cc2)c1C1CC1 the result was 9.777%.
For Cc1ccc(CN2Cc3c(C(=O)N(C)C)nn(C)c3C2)s1 the result was 19.5%.
For Cn1nccc1C(=O)N1C[C@@H]2CN(S(C)(=O)=O)CCO[C@@H]2C1 the result was 18.03%.
For COc1ccc(CN2CCOC(CCc3ccnc(N)c3)C2)cc1 (configuration not stated) the result was 12%.

Data taken from ChEMBL document CHEMBL3988442, “University of Dundee, Small-Polar-MMV Screening Library” (2021).